Test results from paper PMC12446476 (Nature Communications, 2025).
This continues a long series; more values of the same kind are listed elsewhere.

Tested on: N. gonorrhoeae
Assay: In vitro time-kill assay
Format: cell-based, Neisseria gonorrhoeae
Source text: The 2024 WHO N. gonorrhoeae reference strains were used for quality control. Only whole MIC doubling dilutions are reported. Clinical breakpoints or the epidemiological cutoff (ECOFF, to indicate azithromycin resistance) from EUCAST (v14.0, https://www.eucast.org/clinical_breakpoints) were used to classify isolates as antimicrobial susceptible or resistant. […] Two times the standard inoculum defined by CLSI was used to establish consistent growth in untreated control samples for some strains. In vitro time-kill assays were performed according to CLSI guidelines[65] using Columbia Broth (BD Difco) supplemented with 1% IsoVitaleX Enrichment (BD). Viable bacterial counts were generated by plating 10-fold serially diluted samples on GC agar plates containing 1% IsoVitaleX Enrichment (BD).

Q: For `Cc1c(CN(C)C(=O)/C=C/c2cnc3c(c2)N[C@H](C)[C@H](O)C(=O)N3)oc2ccccc12` [Debio 1453], which “Log10CFU/ml (time kill)” value (WHO X, 2X MIC, 3 hr) is on record?
A: 4.83 Log10CFU/ml

Q: What about the “Log10CFU/ml (time kill)” value (WHO X, 2X MIC, 6 hr) of the same molecule?
A: 3.41 Log10CFU/ml

Q: What about the “Log10CFU/ml (time kill)” value (WHO X, 2X MIC, 10 hr) of the same molecule?
A: 2.30 Log10CFU/ml

Q: What about the “Log10CFU/ml (time kill)” value (WHO X, 2X MIC, 24 hr) of the same molecule?
A: 1.95 Log10CFU/ml

Q: And the “Log10CFU/ml (time kill)” value (WHO X, 4X MIC, 0 hr)?
A: 5.84 Log10CFU/ml

Q: What about the “Log10CFU/ml (time kill)” value (WHO X, 4X MIC, 1 hr) of the same molecule?
A: 5.60 Log10CFU/ml

Q: What about the “Log10CFU/ml (time kill)” value (WHO X, 4X MIC, 3 hr) of the same molecule?
A: 4.00 Log10CFU/ml

Q: What about the “Log10CFU/ml (time kill)” value (WHO X, 4X MIC, 6 hr) of the same molecule?
A: 1.95 Log10CFU/ml

Q: What about the “Log10CFU/ml (time kill)” value (WHO X, 4X MIC, 10 hr) of the same molecule?
A: 1.95 Log10CFU/ml

Q: What about the “Log10CFU/ml (time kill)” value (WHO X, 4X MIC, 24 hr) of the same molecule?
A: 1.95 Log10CFU/ml

Q: What about the “Log10CFU/ml (time kill)” value (WHO X, 8X MIC, 0 hr) of the same molecule?
A: 6.02 Log10CFU/ml

Q: What about the “Log10CFU/ml (time kill)” value (WHO X, 8X MIC, 1 hr) of the same molecule?
A: 5.38 Log10CFU/ml

Q: And the “Log10CFU/ml (time kill)” value (WHO X, 8X MIC, 3 hr)?
A: 4.18 Log10CFU/ml

Q: And the “Log10CFU/ml (time kill)” value (WHO X, 8X MIC, 6 hr)?
A: 1.95 Log10CFU/ml

Q: What about the “Log10CFU/ml (time kill)” value (WHO X, 8X MIC, 10 hr) of the same molecule?
A: 1.95 Log10CFU/ml

Q: What about the “Log10CFU/ml (time kill)” value (WHO X, 8X MIC, 24 hr) of the same molecule?
A: 1.95 Log10CFU/ml

Q: What about the “Log10CFU/ml (time kill)” value (WHO X, 16X MIC, 0 hr) of the same molecule?
A: 5.84 Log10CFU/ml

Q: And the “Log10CFU/ml (time kill)” value (WHO X, 16X MIC, 1 hr)?
A: 5.53 Log10CFU/ml

Q: And the “Log10CFU/ml (time kill)” value (WHO X, 16X MIC, 3 hr)?
A: 4.68 Log10CFU/ml

Q: And the “Log10CFU/ml (time kill)” value (WHO X, 16X MIC, 6 hr)?
A: 2.00 Log10CFU/ml

Q: And the “Log10CFU/ml (time kill)” value (WHO X, 16X MIC, 10 hr)?
A: 1.95 Log10CFU/ml

Q: And the “Log10CFU/ml (time kill)” value (WHO X, 16X MIC, 24 hr)?
A: 1.95 Log10CFU/ml

Q: What about the “Log10CFU/ml (time kill)” value (WHO Y, 2X MIC, 0 hr) of the same molecule?
A: 5.53 Log10CFU/ml

Q: And the “Log10CFU/ml (time kill)” value (WHO Y, 2X MIC, 1 hr)?
A: 5.54 Log10CFU/ml

Q: And the “Log10CFU/ml (time kill)” value (WHO Y, 2X MIC, 3 hr)?
A: 4.30 Log10CFU/ml

Q: What about the “Log10CFU/ml (time kill)” value (WHO Y, 2X MIC, 6 hr) of the same molecule?
A: 3.26 Log10CFU/ml

Q: What about the “Log10CFU/ml (time kill)” value (WHO Y, 2X MIC, 10 hr) of the same molecule?
A: 1.95 Log10CFU/ml

Q: And the “Log10CFU/ml (time kill)” value (WHO Y, 2X MIC, 24 hr)?
A: 1.95 Log10CFU/ml

Q: What about the “Log10CFU/ml (time kill)” value (WHO Y, 4X MIC, 0 hr) of the same molecule?
A: 5.59 Log10CFU/ml

Q: What about the “Log10CFU/ml (time kill)” value (WHO Y, 4X MIC, 1 hr) of the same molecule?
A: 4.00 Log10CFU/ml

Q: What about the “Log10CFU/ml (time kill)” value (WHO Y, 4X MIC, 3 hr) of the same molecule?
A: 3.61 Log10CFU/ml

Q: What about the “Log10CFU/ml (time kill)” value (WHO Y, 4X MIC, 6 hr) of the same molecule?
A: 1.95 Log10CFU/ml

Q: And the “Log10CFU/ml (time kill)” value (WHO Y, 4X MIC, 10 hr)?
A: 1.95 Log10CFU/ml

Q: What about the “Log10CFU/ml (time kill)” value (WHO Y, 4X MIC, 24 hr) of the same molecule?
A: 1.95 Log10CFU/ml

Q: And the “Log10CFU/ml (time kill)” value (WHO Y, 8X MIC, 0 hr)?
A: 5.53 Log10CFU/ml

Q: What about the “Log10CFU/ml (time kill)” value (WHO Y, 8X MIC, 1 hr) of the same molecule?
A: 4.30 Log10CFU/ml

Q: And the “Log10CFU/ml (time kill)” value (WHO Y, 8X MIC, 3 hr)?
A: 3.32 Log10CFU/ml

Q: And the “Log10CFU/ml (time kill)” value (WHO Y, 8X MIC, 6 hr)?
A: 2.00 Log10CFU/ml

Q: And the “Log10CFU/ml (time kill)” value (WHO Y, 8X MIC, 10 hr)?
A: 1.95 Log10CFU/ml

Q: What about the “Log10CFU/ml (time kill)” value (WHO Y, 8X MIC, 24 hr) of the same molecule?
A: 1.95 Log10CFU/ml

Q: What about the “Log10CFU/ml (time kill)” value (WHO Y, 16X MIC, 0 hr) of the same molecule?
A: 5.66 Log10CFU/ml

Q: What about the “Log10CFU/ml (time kill)” value (WHO Y, 16X MIC, 1 hr) of the same molecule?
A: 4.60 Log10CFU/ml

Q: And the “Log10CFU/ml (time kill)” value (WHO Y, 16X MIC, 3 hr)?
A: 3.56 Log10CFU/ml

Q: And the “Log10CFU/ml (time kill)” value (WHO Y, 16X MIC, 6 hr)?
A: 1.95 Log10CFU/ml

Q: And the “Log10CFU/ml (time kill)” value (WHO Y, 16X MIC, 10 hr)?
A: 1.95 Log10CFU/ml

Q: And the “Log10CFU/ml (time kill)” value (WHO Y, 16X MIC, 24 hr)?
A: 1.95 Log10CFU/ml

Q: And the “Log10CFU/ml (time kill)” value (WHO Z, 2X MIC, 0 hr)?
A: 5.84 Log10CFU/ml

Q: And the “Log10CFU/ml (time kill)” value (WHO Z, 2X MIC, 1 hr)?
A: 5.75 Log10CFU/ml

Q: And the “Log10CFU/ml (time kill)” value (WHO Z, 2X MIC, 3 hr)?
A: 4.96 Log10CFU/ml

Q: What about the “Log10CFU/ml (time kill)” value (WHO Z, 2X MIC, 6 hr) of the same molecule?
A: 4.16 Log10CFU/ml

Q: And the “Log10CFU/ml (time kill)” value (WHO Z, 2X MIC, 10 hr)?
A: 3.11 Log10CFU/ml

Q: What about the “Log10CFU/ml (time kill)” value (WHO Z, 2X MIC, 24 hr) of the same molecule?
A: 1.95 Log10CFU/ml

Q: What about the “Log10CFU/ml (time kill)” value (WHO Z, 4X MIC, 0 hr) of the same molecule?
A: 5.92 Log10CFU/ml

Q: And the “Log10CFU/ml (time kill)” value (WHO Z, 4X MIC, 1 hr)?
A: 5.60 Log10CFU/ml

Q: What about the “Log10CFU/ml (time kill)” value (WHO Z, 4X MIC, 3 hr) of the same molecule?
A: 4.14 Log10CFU/ml

Q: What about the “Log10CFU/ml (time kill)” value (WHO Z, 4X MIC, 6 hr) of the same molecule?
A: 2.48 Log10CFU/ml

Q: And the “Log10CFU/ml (time kill)” value (WHO Z, 4X MIC, 10 hr)?
A: 2.00 Log10CFU/ml

Q: And the “Log10CFU/ml (time kill)” value (WHO Z, 4X MIC, 24 hr)?
A: 1.95 Log10CFU/ml

Q: What about the “Log10CFU/ml (time kill)” value (WHO Z, 8X MIC, 0 hr) of the same molecule?
A: 5.91 Log10CFU/ml

Q: And the “Log10CFU/ml (time kill)” value (WHO Z, 8X MIC, 1 hr)?
A: 5.49 Log10CFU/ml

Q: What about the “Log10CFU/ml (time kill)” value (WHO Z, 8X MIC, 3 hr) of the same molecule?
A: 3.34 Log10CFU/ml

Q: What about the “Log10CFU/ml (time kill)” value (WHO Z, 8X MIC, 6 hr) of the same molecule?
A: 2.60 Log10CFU/ml

Q: And the “Log10CFU/ml (time kill)” value (WHO Z, 8X MIC, 10 hr)?
A: 1.95 Log10CFU/ml

Q: And the “Log10CFU/ml (time kill)” value (WHO Z, 8X MIC, 24 hr)?
A: 1.95 Log10CFU/ml

Q: And the “Log10CFU/ml (time kill)” value (WHO Z, 16X MIC, 0 hr)?
A: 5.97 Log10CFU/ml

Q: And the “Log10CFU/ml (time kill)” value (WHO Z, 16X MIC, 1 hr)?
A: 5.43 Log10CFU/ml

Q: What about the “Log10CFU/ml (time kill)” value (WHO Z, 16X MIC, 3 hr) of the same molecule?
A: 3.11 Log10CFU/ml

Q: And the “Log10CFU/ml (time kill)” value (WHO Z, 16X MIC, 6 hr)?
A: 2.48 Log10CFU/ml

Q: What about the “Log10CFU/ml (time kill)” value (WHO Z, 16X MIC, 10 hr) of the same molecule?
A: 1.95 Log10CFU/ml

Q: What about the “Log10CFU/ml (time kill)” value (WHO Z, 16X MIC, 24 hr) of the same molecule?
A: 1.95 Log10CFU/ml
